Reference: article PMC5686067
These are yes or no findings as the source states them, for the method shown.

Biological target: sNlpI-ΔN (E. coli) (UniProt P0AFB1)
Assay: AUC; sedimentation velocity, absorbance optics, 20 mM Tris-HCl pH 8.0, 100 mM NaCl, 2 mM DTT, 20 °C, c(s) model in Sedfit; both purified

binding: no binding
B1: sNlpI-ΔN (domain or fragment, UniProt P0AFB1 37-294)
chain: TLQQEVILARMEQILASRALTDDERAQLLYERGVLYDSLGLRALARNDFSQALAIRPDMPEVFNYLGIYLTQAGNFDAAYEAFDSVLELDPTYNYAHLNRGIALYYGGRDKLAQDDLLAFYQDDPNDPFRSLWLYLAEQKLDEKQAKEVLKQHFEKSDKEQWGWNIVEFYLGNISEQTLMERLKADATDNTSLAEHLSETNFYLGKYYLSLGDLDSATALFKLAVANNVHNFVEHRYALLELSLLGQDQDDLAESDQQ
